No constants are given. Whether binding was seen depends on the method and setting. Some results given as binding are weak or reduced against the parent protein; the word gives no strength.

Amino acid sequences for entries named in this document (tags omitted). A change or cut given only in a name is not applied to a line headed by its entry. Residues count along the entry.
UniProt P21810: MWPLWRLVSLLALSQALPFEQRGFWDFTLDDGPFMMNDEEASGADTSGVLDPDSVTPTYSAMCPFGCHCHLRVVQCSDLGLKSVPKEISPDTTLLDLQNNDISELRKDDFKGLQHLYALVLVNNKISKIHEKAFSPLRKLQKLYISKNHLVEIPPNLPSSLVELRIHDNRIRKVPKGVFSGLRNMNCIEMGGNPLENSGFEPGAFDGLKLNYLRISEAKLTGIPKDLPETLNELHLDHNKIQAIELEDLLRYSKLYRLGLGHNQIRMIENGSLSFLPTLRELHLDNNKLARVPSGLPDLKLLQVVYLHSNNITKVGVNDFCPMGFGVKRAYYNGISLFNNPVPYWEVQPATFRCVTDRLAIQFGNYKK
UniProt P21793, residues 31-360: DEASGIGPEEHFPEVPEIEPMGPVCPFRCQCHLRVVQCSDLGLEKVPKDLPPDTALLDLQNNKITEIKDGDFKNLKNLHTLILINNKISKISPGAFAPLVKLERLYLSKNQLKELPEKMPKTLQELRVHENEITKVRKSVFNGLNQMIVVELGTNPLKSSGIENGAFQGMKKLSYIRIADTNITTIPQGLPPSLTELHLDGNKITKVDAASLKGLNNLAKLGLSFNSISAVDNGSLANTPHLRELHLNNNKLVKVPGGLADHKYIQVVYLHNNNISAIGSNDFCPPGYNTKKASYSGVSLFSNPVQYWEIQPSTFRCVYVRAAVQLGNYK

For experiment [1], the target named is T1, α-dystroglycan (dystroglycan as named in the overlay assays; fragment not named at the place) (human) (UniProt Q14118).
T1 sequence (looked up): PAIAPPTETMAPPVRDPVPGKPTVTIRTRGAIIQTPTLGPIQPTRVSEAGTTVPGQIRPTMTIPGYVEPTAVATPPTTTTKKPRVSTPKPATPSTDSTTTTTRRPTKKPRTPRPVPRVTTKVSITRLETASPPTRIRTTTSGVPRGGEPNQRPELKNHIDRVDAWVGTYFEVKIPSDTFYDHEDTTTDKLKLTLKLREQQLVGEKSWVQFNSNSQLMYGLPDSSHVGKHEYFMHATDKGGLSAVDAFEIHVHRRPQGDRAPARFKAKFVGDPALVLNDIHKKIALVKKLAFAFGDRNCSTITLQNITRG
Kind of experiment: assay not described at this place.

The target in experiment [2] is T1, α-dystroglycan (dystroglycan as named in the overlay assays; fragment not named at the place) (human). The experiment can be described thus: dystroglycan blot overlay, 4 µg loaded (FIG. 7).
Experiment [3] has the same target. Kind of experiment: dystroglycan blot overlay (FIG. 7).
For experiment [4], the target named is T2, native α-sarcoglycan from detergent extracts of cultured mouse myotubes (printed 'native human', isolated from cultured mouse myotubes) (UniProt P82350).
T2 sequence (looked up): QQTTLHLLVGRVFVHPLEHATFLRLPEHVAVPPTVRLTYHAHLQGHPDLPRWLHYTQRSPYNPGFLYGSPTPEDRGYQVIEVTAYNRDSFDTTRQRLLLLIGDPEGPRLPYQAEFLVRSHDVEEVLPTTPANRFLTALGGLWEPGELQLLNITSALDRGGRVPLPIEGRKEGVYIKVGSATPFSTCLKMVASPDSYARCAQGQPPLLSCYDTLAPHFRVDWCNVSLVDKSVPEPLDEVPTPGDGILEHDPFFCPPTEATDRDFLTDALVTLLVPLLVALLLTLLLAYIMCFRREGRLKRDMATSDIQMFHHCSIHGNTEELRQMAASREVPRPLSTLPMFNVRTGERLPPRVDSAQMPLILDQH
The experiment can be described thus: myotube detergent extract incubated with recombinant human core biglycan, immunoprecipitation with antibodies to α-sarcoglycan, Western blot with antibodies to biglycan (FIG. 8D). Background: Immunoblotting shows a protein as a band on a membrane.

As for “Human biglycan produced in the vaccinia system (mixture of core biglycan and proteoglycan biglycan) (from UniProt P21810 38-368)”, the binding result in experiment [1] is “binds”. For the molecule “decorin purified from bovine articular cartilage (Sigma) (from UniProt P21793 31-360)”, the binding entry in experiment [2] was “binds”.

B1: biglycan purified from bovine articular cartilage (Sigma) (protein, UniProt P21809 38-369, looked up)
chain: DEEASGAETTSGIPDLDSLPPTYSAMCPFGCHCHLRVVQCSDLGLKAVPKEISPDTTLLDLQNNDISELRKDDFKGLQHLYALVLVNNKISKIHEKAFSPLRKLQKLYISKNHLVEIPPNLPSSLVELRIHDNRIRKVPKGVFSGLRNMNCIEMGGNPLENSGFEPGAFDGLKLNYLRISEAKLTGIPKDLPETLNELHLDHNKIQAIELEDLLRYSKLYRLGLGHNQIRMIENGSLSFLPTLRELHLDNNKLSRVPAGLPDLKLLQVVYLHTNNITKVGVNDFCPVGFGVKRAYYNGISLFNNPVPYWEVQPATFRCVTDRLAIQFGNYKK
modifications: native glycosaminoglycan chains (not further described)
In the case of B1, the binding entry in experiment [2] and in experiment [3] was “binds” in each case.

B2: biglycan core (recombinant human biglycan, no side chains) (protein, not shown: small tags and cut ends)
chain: HHHHHHESLEDEEASGADTSGVLDPDSVTPTYSAMCPFGCHCHLRVVQCSDLGLKSVPKEISPDTTLLDLQNNDISELRKDDFKGLQHLYALVLVNNKISKIHEKAFSPLRKLQKLYISKNHLVEIPPNLPSSLVELRIHDNRIRKVPKGVFSGLRNMNCIEMGGNPLENSGFEPGAFDGLKLNYLRISEAKLTGIPKDLPETLNELHLDHNKIQAIELEDLLRYSKLYRLGLGHNQIRMIENGSLSFLPTLRELHLDNNKLARVPSGLPDLKLLQVVYLHSNNITKVGVNDFCPMGFGVKRAYYNGISLFNNPVPYWEVQPATFRCVTDRLAIQFGNYKK
Consider B2, for which the binding result in experiment [4] was “binds”.
